# Data from the supplement of paper PMC8728848.
# Some of the results follow.
# How the values were obtained:
# Assay in all cases: glycan array binding signal (z-score within array); higher = stronger binding
# Conditions in all cases: glycan notation: IUPAC condensed, linker removed
# [1] = molecular target: Fuc(a1-2)Gal(b1-4)GlcNAc(b1-3)Gal(b1-4)GlcNAc(b1-2)Man(a1-3)[Fuc(a1-2)Gal(b1-4)GlcNAc(b1-3)Gal(b1-4)GlcNAc(b1-2)Man(a1-6)]Man(b1-4)GlcNAc(b1-4)GlcNAc
# How it was run: (§1)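 The binding signal is a Z-score computed within each array. Data were drawn from 3228 arrays in the Consortium for Functional Glycomics database, restricted to those with a known protein sequence. Scores were averaged over arrays of the same protein sequence at different concentrations or buffers, and over linkers, and negative values can be taken as non-binding.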
# [2] = molecular target: Fuc(a1-2)Gal(b1-4)GlcNAc(b1-3)Gal(b1-4)GlcNAc(b1-3)Gal(b1-4)GlcNAc
# How it was run: as §1
# [3] = molecular target: Fuc(a1-2)Gal(b1-4)GlcNAc(b1-3)GalNAc
# How it was run: as §1
# [4] = molecular target: Fuc(a1-2)Gal(b1-4)GlcNAc(b1-3)[Fuc(a1-2)Gal(b1-4)GlcNAc(b1-6)]GalNAc
# How it was run: as §1
# [5] = molecular target: Fuc(a1-2)Gal(b1-4)GlcNAc(b1-3)[Fuc(a1-3)[Gal(b1-4)]GlcNAc(b1-6)]Gal(b1-4)Glc
# How it was run: as §1
# [6] = molecular target: Fuc(a1-2)Gal(b1-4)GlcNAc(b1-6)GalNAc
# How it was run: as §1
# [7] = molecular target: Fuc(a1-2)Gal(b1-4)GlcNAc6S
# How it was run: as §1
# [8] = molecular target: Fuc(a1-2)Gal(b1-4)[Fuc(a1-3)]GlcNAc
# How it was run: as §1
# [9] = molecular target: Fuc(a1-2)Gal(b1-4)[Fuc(a1-3)]GlcNAc(b1-2)Man(a1-3)[Fuc(a1-2)Gal(b1-4)[Fuc(a1-3)]GlcNAc(b1-2)Man(a1-6)]Man(b1-4)GlcNAc(b1-4)[Fuc(a1-6)]GlcNAc
# How it was run: as §1
# [10] = molecular target: Fuc(a1-2)Gal(b1-4)[Fuc(a1-3)]GlcNAc(b1-2)[Fuc(a1-2)Gal(b1-4)[Fuc(a1-3)]GlcNAc(b1-4)]Man(a1-3)[Fuc(a1-2)Gal(b1-4)[Fuc(a1-3)]GlcNAc(b1-2)Man(a1-6)]Man(b1-4)GlcNAc(b1-4)GlcNAc
# How it was run: as §1
# [11] = molecular target: Fuc(a1-2)Gal(b1-4)[Fuc(a1-3)]GlcNAc(b1-3)Gal(b1-4)[Fuc(a1-3)]GlcNAc
# How it was run: as §1
# [12] = molecular target: Fuc(a1-2)Gal(b1-4)[Fuc(a1-3)]GlcNAc(b1-3)Gal(b1-4)[Fuc(a1-3)]GlcNAc(b1-3)Gal(b1-4)[Fuc(a1-3)]GlcNAc
# How it was run: as §1
# [13] = molecular target: Fuc(a1-2)Gal(b1-4)[Fuc(a1-3)]GlcNAc(b1-3)GalNAc
# How it was run: as §1
# [14] = molecular target: Fuc(a1-2)Gal(b1-4)[Fuc(a1-3)]GlcNAc(b1-3)[Neu5Ac(a2-6)Gal(b1-4)GlcNAc(b1-6)]Gal(b1-4)Glc
# How it was run: as §1
# [15] = molecular target: Fuc(a1-2)Gal3S(b1-4)GlcNAc
# How it was run: as §1
# [16] = molecular target: Fuc(a1-2)Gal6S(b1-3)GlcNAc
# How it was run: as §1
# [17] = molecular target: Fuc(a1-2)Gal6S(b1-3)GlcNAc6S
# How it was run: as §1
# Fuc(a1-2)Gal6S(b1-4)Glc = molecular target: Fuc(a1-2)Gal6S(b1-4)Glc
# How it was run: as §1
# [18] = molecular target: Fuc(a1-2)Gal6S(b1-4)Glc6S
# How it was run: as §1
# Fuc(a1-2)[Gal(a1-3)]Gal = molecular target: Fuc(a1-2)[Gal(a1-3)]Gal
# How it was run: as §1
# [19] = molecular target: Fuc(a1-2)[Gal(a1-3)]Gal(b1-3)GalNAc
# How it was run: as §1
# [20] = molecular target: Fuc(a1-2)[Gal(a1-3)]Gal(b1-3)GalNAc(b1-3)Gal(a1-4)Gal(b1-4)Glc
# How it was run: as §1
# [21] = molecular target: Fuc(a1-2)[Gal(a1-3)]Gal(b1-3)GlcNAc
# How it was run: as §1
# [22] = molecular target: Fuc(a1-2)[Gal(a1-3)]Gal(b1-3)GlcNAc(b1-2)Man(a1-3)[Fuc(a1-2)[Gal(a1-3)]Gal(b1-3)GlcNAc(b1-2)Man(a1-6)]Man(b1-4)GlcNAc(b1-4)GlcNAc
# How it was run: as §1
# [23] = molecular target: Fuc(a1-2)[Gal(a1-3)]Gal(b1-3)GlcNAc(b1-2)Man(a1-3)[Fuc(a1-2)[Gal(a1-3)]Gal(b1-3)GlcNAc(b1-2)Man(a1-6)]Man(b1-4)GlcNAc(b1-4)[Fuc(a1-6)]GlcNAc
# How it was run: as §1
# [24] = molecular target: Fuc(a1-2)[Gal(a1-3)]Gal(b1-3)GlcNAc(b1-3)GalNAc
# How it was run: as §1
# [25] = molecular target: Fuc(a1-2)[Gal(a1-3)]Gal(b1-3)GlcNAc(b1-6)GalNAc
# How it was run: as §1
# [26] = molecular target: Fuc(a1-2)[Gal(a1-3)]Gal(b1-4)Glc
# How it was run: as §1
# [27] = molecular target: Fuc(a1-2)[Gal(a1-3)]Gal(b1-4)GlcNAc
# How it was run: as §1
# [28] = molecular target: Fuc(a1-2)[Gal(a1-3)]Gal(b1-4)GlcNAc(b1-2)Man
# How it was run: as §1
binder,measurement,setting,value
"LysMD3 (Homo sapiens), Q7Z3D4 (protein) MAGRHQNRSFPLPGVQSSGQVHAFGNCSDSDILEEDAEVYELRSRGKEKVRRSTSRDRLDDIIVLTKDIQEGDTLNAIALQYCCTVADIKRVNNLISDQDFFALRSIKIPVKKFSSLTETLCPPKGRQTSRHSSVQYSSEQQEILPANDSLAYSDSAGSFLKEVDRDIEQIVKCTDNKRENLNEVVSALTAQQMRFEPDNKNTQRKDPYYGADWGIG",glycan array binding signal (z-score),[1],1.21
same,glycan array binding signal (z-score),[2],1.17
same,glycan array binding signal (z-score),[3],-0.526
same,glycan array binding signal (z-score),[4],0.231
same,glycan array binding signal (z-score),[5],-0.16
same,glycan array binding signal (z-score),[6],-0.955
same,glycan array binding signal (z-score),[7],0.38
same,glycan array binding signal (z-score),[8],0.707
same,glycan array binding signal (z-score),[9],1.97
same,glycan array binding signal (z-score),[10],0.445
same,glycan array binding signal (z-score),[11],-0.496
same,glycan array binding signal (z-score),[12],-0.389
same,glycan array binding signal (z-score),[13],0.4
same,glycan array binding signal (z-score),[14],0.102
same,glycan array binding signal (z-score),[15],-0.16
same,glycan array binding signal (z-score),[16],-0.832
same,glycan array binding signal (z-score),[17],-0.478
same,glycan array binding signal (z-score),Fuc(a1-2)Gal6S(b1-4)Glc,0.156
same,glycan array binding signal (z-score),[18],-0.415
same,glycan array binding signal (z-score),Fuc(a1-2)[Gal(a1-3)]Gal,0.253
same,glycan array binding signal (z-score),[19],1.27
same,glycan array binding signal (z-score),[20],-0.214
same,glycan array binding signal (z-score),[21],0.725
same,glycan array binding signal (z-score),[22],-0.581
same,glycan array binding signal (z-score),[23],0.057
same,glycan array binding signal (z-score),[24],0.213
same,glycan array binding signal (z-score),[25],-1.14
same,glycan array binding signal (z-score),[26],-0.326
same,glycan array binding signal (z-score),[27],0.797
same,glycan array binding signal (z-score),[28],-0.062

# Reprinted at random: 2 entries already listed, in no set order.
binder,measurement,setting,value
"LysMD3 (Homo sapiens), Q7Z3D4 (protein) MAGRHQNRSFPLPGVQSSGQVHAFGNCSDSDILEEDAEVYELRSRGKEKVRRSTSRDRLDDIIVLTKDIQEGDTLNAIALQYCCTVADIKRVNNLISDQDFFALRSIKIPVKKFSSLTETLCPPKGRQTSRHSSVQYSSEQQEILPANDSLAYSDSAGSFLKEVDRDIEQIVKCTDNKRENLNEVVSALTAQQMRFEPDNKNTQRKDPYYGADWGIG",glycan array binding signal (z-score),[19],1.27
same,glycan array binding signal (z-score),[27],0.797
